These are yes or no findings as the source states them, for the method shown.
Target: ColN_(1–90) (ColN-T), isolated translocation domain of colicin N (Escherichia coli) (UniProt P08083)
Assay: AUC; sedimentation velocity, 48,000 RPM, 4°C, 20 mM Tris, 150 mM NaCl, pH 7.5; 0.3-1.5 mg/mL; c(s) and c(M) analysis in SEDFIT; both purified

B1: ColN_(1–90) (ColN-T), isolated translocation domain of colicin N (domain or fragment)
chain: MGSNGADNAHNNAFGGGKNPGIGNTSGAGSNGSASSNRGNSNGWSWSNKPHKNDGFHSDGSYHITFHGDNNSKPKPGGNSGNRGNNGDGA
notes: colicin N (ColN), residues 1-90, the intrinsically disordered translocation (T-) domain; the whole toxin has 387 residues; 98-residue construct: residues 1-90 followed directly by Ser2His6; Used unlabelled in the NMR mixing experiment; also called T-domain; ColN-T(1-90)-SSHHHHHH; source: purified as previously described (20, 26), dialysed into 50 mM sodium phosphate, pH 7.6, 300 mM NaCl; not …
B1 was tested, and the binding was “no binding (tested: 0.3-1.5 mg/mL)”.

— paper PMC5647543, “The Two-State Prehensile Tail of the Antibacterial Toxin Colicin N” (Biophysical Journal, 2017)
